Test results reported in patent publication US20130288964A1, “Use of peptides for promoting wound healing” (priority 2008, published 2013).
Not every detail of the peptide structures is certain; ends, links or a residue may be inferred. Where no end group is shown, it is not given here.

Tests used:
[1] = test system: human buccal epithelial cell line TR146; test: In vitro wound healing (scratch wound closure) experiments; type: cell-based; details: for Wound closure rel. clos. ± SD: closure approx. 16 h after wounding relative to negative control, synthetic peptides in SFM, * significant; for induction of wound closure: synthesized peptides, 1-50 μg/ml; for optimal concentration for wound closure: tested at 1, 5, 10, 30 and 50 μg/ml
Experimental: The human buccal epithelial cell line TR146 (Rupniak et al; J Natl Cancer Inst. 1985 October; 75(4):621-35) was kindly provided by Cancer Research UK. Cells were grown in Dulbecco's modified Eagle medium with 4.5 g/l glucose (Invitrogen), 10% FCS (HyClone) and […] penicillin, […] streptomycin, and 250 ng/ml amphotericinB (Antibiotic antimyotic solution, Sigma,), at 37° C., 95% humidity and 5% CO2. Cells were maintained until near confluence and then briefly treated with 0.25% trypsin-EDTA lx (Invitrogen) to detach them, counted in a hepacytometer and seeded into new flasks or multi-well plates at the required cell density of about 1.5×10×5 cells/well.
Wound assays were performed as previously described (Matthay et al., 1993, J Cell Sci. 106 (Pt 3):869-78). In brief, cells were grown in 12-well plates until confluence, and then were serum deprived for 24 hours in keratinocyte serum free medium (SFM (Invitrogen)). In each well a scratch was made in the cellular monolayer using a sterile tip. The wounded monolayer was washed with SFM to remove cellular debris, and the following conditions were applied: • (i) Whole saliva and salivary secretions applied in 30% (v/v) in SFM. As a negative control 30% (v/v) saliva buffer was used. • (ii) (ii) rhEGF (Invitrogen) as a positive control • (iii) rp-HPLC fractions containing salivary proteins; • (iv) synthetic peptides: the experiments with isolated proteins and synthetic peptides were performed in full SFM.
The width of the wound area was determined microscopically immediately after wound creation and at approximately 16 hours after wounding. The relative closure was calculated by relating the closure to that of the negative control.
For inhibitor studies; directly after wounding cells were exposed to inhibitors of ERK1/2 (U0126, 5 μM, LC Laboratories), EGFR (AG1478, 1 μM, Calbiochem), and p38 MAPK (SB203580, 5 μM; LC Laboratories). Experiments were done in quadruplicate and analyzed using One-way ANOVA to determine significance with additional LSD post hoc test, P<0.05 was considered significant.

epithelial cells = test: Internalization of FITC labeled histatin in epithelial cells (microscopy); type: cell-based, human; details: FITC labeled histatin incubated two hours (data not shown)
Experimental: Microscope: Leica DM IL PLAN 4-40x magnification, 0.5 lens; camera: Leica DFC320; and acquisition software: Leica IM500. Images were quantified using Adobe Photoshop CS3. Additionally, brightness/contrast levels of the co-localization studies were altered with Adobe Photoshop CS3. FITC labeled histatin was incubated with the cells for two hours. PI was added to check for membrane disruptive dependent internalization. 100 mM Azide was used for 1 hour. Cells were trypsinized as described above. Co-localization studies were performed using Mitotracker (Invitrogen) and Lysotracker (Invitrogen) following manufacturer's instructions. In Candida Histatin 5 is internalized and associates with the energized mitochondrion. Given the abovementioned discrepancy between C. albicans and epithelial cells we were very interested whether histatins become internalized and where in the cells they accumulate. […] NaN3 inhibits the function of cytochrome c oxidase by binding irreversibly to the heme cofactor. Thus, NaN3 treatment lead us to conclude that the internalization energy dependent. […] Which, in addition to the stereo-specificity, is indicating a receptor mediated process. We used mitochondria and acidic lysosome specific markers to elucidate histatin's fate once it is internalized

| Compound | Wound closure rel. clos. ± SD [1] | induction of wound closure [1] | internalization into epithelial cells (epithelial cells) | induced wound closure with EGF receptor blocked ([1]; EGFR inhibitor AG1478 1 μM) | MAPK pathway dependence of induced wound closure ([1]; inhibitors U0126 5 μM (ERK1/2), SB203580 5 μM (p38 MAPK), FIG. 2) | optimal concentration for wound closure [1] [µg/mL] | relative wound closure ([1]; peptide concentration 1*10-3 μM, 1 = no peptide added (FIG. 4)) |
| --- | --- | --- | --- | --- | --- | --- | --- |
| CC(C)C[C@@H](NC(=O)[C@@H](Cc1ccc(O)cc1)NC(=O)[C@@H](CC(N)=O)NC(=O)[C@@H](CO)NC(=O)CNC(=O)[C@@H](Cc1ccc(O)cc1)NC(=O)[C@@H](CC(=O)O)NC(=O)CNC(=O)[C@@H](Cc1ccc(O)cc1)NC(=O)[C@@H](Cc1ccccc1)NC(=O)[C@H]1CCCN1C(=O)[C@@H](Cc1ccccc1)NC(=O)[C@@H](CCC(=O)O)NC(=O)[C@@H](CCCNC(=N)N)NC(=O)[C@@H](Cc1c[nH]cn1)NC(=O)[C@@H](CO)NC(=O)[C@@H](Cc1c[nH]cn1)NC(=O)[C@@H](Cc1c[nH]cn1)NC(=O)[C@@H](CCCCN)NC(=O)[C@@H](CCC(=O)O)NC(=O)[C@@H](Cc1c[nH]cn1)NC(=O)[C@@H](Cc1ccccc1)NC(=O)[C@@H](CCCCN)NC(=O)[C@H](N)CCCNC(=N)N)C(=O)N[C@H](Cc1ccc(O)cc1)C(=O)N[C@H](CC(=O)O)C(=O)N[C@H](CC(N)=O)C(=O)O [D-Histatin 2, reference compound] | 0.99 ± 0.14 | do not | are not | – | – | – | – |
| CC(C)C[C@H](NC(=O)[C@H](Cc1ccc(O)cc1)NC(=O)[C@H](CC(N)=O)NC(=O)[C@H](CO)NC(=O)CNC(=O)[C@H](Cc1ccc(O)cc1)NC(=O)[C@H](CC(=O)O)NC(=O)CNC(=O)[C@H](Cc1ccc(O)cc1)NC(=O)[C@H](Cc1ccccc1)NC(=O)[C@@H]1CCCN1C(=O)[C@H](Cc1ccccc1)NC(=O)[C@H](CCC(=O)O)NC(=O)[C@H](CCCNC(=N)N)NC(=O)[C@H](Cc1c[nH]cn1)NC(=O)[C@H](CO)NC(=O)[C@H](Cc1c[nH]cn1)NC(=O)[C@H](Cc1c[nH]cn1)NC(=O)[C@H](CCCCN)NC(=O)[C@H](CCC(=O)O)NC(=O)[C@H](Cc1c[nH]cn1)NC(=O)[C@H](Cc1ccccc1)NC(=O)[C@H](CCCCN)NC(=O)[C@@H](N)CCCNC(=N)N)C(=O)N[C@@H](Cc1ccc(O)cc1)C(=O)N[C@@H](CC(=O)O)C(=O)N[C@@H](CC(N)=O)C(=O)O [Histatin 2] | 1.36 ± 0.13* | induce wound closure | are internalized | EGFR independent induced wound closure | is not p38^MAPK but appears ERK1/2 dependent | 5 to 10 | – |
| C[C@H](NC(=O)[C@H](Cc1cnc[nH]1)NC(=O)[C@H](CO)NC(=O)[C@@H](N)CC(=O)O)C(=O)N[C@@H](CCCCN)C(=O)N[C@@H](CCCNC(=N)N)C(=O)N[C@@H](Cc1cnc[nH]1)C(=O)N[C@@H](Cc1cnc[nH]1)C(=O)NCC(=O)N[C@@H](Cc1ccc(O)cc1)C(=O)N[C@@H](CCCCN)C(=O)N[C@@H](CCCNC(=N)N)C(=O)N[C@@H](CCCCN)C(=O)N[C@@H](Cc1ccccc1)C(=O)N[C@@H](Cc1cnc[nH]1)C(=O)N[C@@H](CCC(=O)O)C(=O)N[C@@H](CCCCN)C(=O)N[C@@H](Cc1cnc[nH]1)C(=O)N[C@@H](Cc1cnc[nH]1)C(=O)N[C@@H](CO)C(=O)N[C@@H](Cc1cnc[nH]1)C(=O)N[C@@H](CCCNC(=N)N)C(=O)NCC(=O)N[C@@H](Cc1ccc(O)cc1)C(=O)O [Histatin 5, reference compound] | 1.04 ± 0.11 | do not | are not | – | – | – | – |
| DSHEKRHHGYRRKFHEKHHSHREFPFYGDYGSNYLYDN [Histatin 1] | 1.22 ± 0.12* | induce wound closure | are internalized | – | – | 10 to 30 | above 1 |
